We go through 1 molecule from doi:10.1101/2023.08.25.554913 (bioRxiv, 2023).

This assay addresses PfuAmyGT (PF0272) from Pyrococcus furiosus, wild type (Pyrococcus furiosus) (UniProt P49067). Kind of assay: native gel or EMSA. (In general: Mobility shift assays separate free from complexed probe on a gel.)

No constants are given. Whether binding was seen depends on the method and setting. Some results given as binding are weak or reduced against the parent protein; the word gives no strength.

B1: PfuAmyGT (PF0272) from Pyrococcus furiosus, wild type (enzyme, UniProt P49067 1-649, looked up)
chain: MGDKINFIFGIHNHQPLGNFGWVFEEAYEKCYWPFLETLEEYPNMKVAIHTSGPLIEWLQDNRPEYIDLLRSLVKRGQVEIVVAGFYEPVLASIPKEDRIEQIRLMKEWAKSIGFDARGVWLTERVWQPELVKTLKESGIDYVIVDDYHFMSAGLSKEELYWPYYTEDGGEVIAVFPIDEKLRYLIPFRPVDKVLEYLHSLIDGDESKVAVFHDDGEKFGIWPGTYEWVYEKGWLREFFDRISSDEKINLMLYTEYLEKYKPRGLVYLPIASYFEMSEWSLPAKQARLFVEFVNELKVKGIFEKYRVFVRGGIWKNFFYKYPESNYMHKRMLMVSKLVRNNPEARKYLLRAQCNDAYWHGLFGGVYLPHLRRAIWNNLIKANSYVSLGKVIRDIDYDGFEEVLIENDNFYAVFKPSYGGSLVEFSSKNRLVNYVDVLARRWEHYHGYVESQFDGVASIHELEKKIPDEIRKEVAYDKYRRFMLQDHVVPLGTTLEDFMFSRQQEIGEFPRVPYSYELLDGGIRLKREHLGIEVEKTVKLVNDGFEVEYIVNNKTGNPVLFAVELNVAVQSIMESPGVLRGKEIVVDDKYAVGKFALKFEDEMEVWKYPVKTLSQSESGWDLIQQGVSYIVPIRLEDKIRFKLKFEEASG
As for B1, the binding entry is “binds”.
